Laboratory results from article PMC12299903 (Pharmaceuticals, 2025).

Columns and labels:
[1] = 2H solid-state NMR, phospholipid bilayer order parameters; settings: POPC:POPG-d31 (3:1), 2 mol% peptide, pH 7.0, 300 K
[2] = Differential scanning calorimetry of model membranes; settings: for ∆transH of LUVs: 3 mM DMPC:DMPG (3:1) LUVs, 10 mM Tris-HCl pH 7.5, pure LUVs 24.0, triplicate, ± 0.5
Description: The phase transition profile of 1,2-dimyristoyl-sn-glycero-3-phosphocholine and 1,2-dimyristoyl-sn-glycero-3-phosphocholine/1,2-dimyristoyl-sn-glycero-3-phosphoglycerol (DMPC:DMPG. 3:1, mol:mol) at 3 mM was investigated in the absence and presence of Lun-1, NP, NP-Lun-EN, and NP-Lun-EC at different concentrations (Table S1, using a VP-DSC® microcalorimeter (Malvern® Instruments, Malvern, UK). All mixtures of LUVs and peptide–LUVs were prepared immediately prior to the experiments. The samples were pre-degassed and tested against a 10 mM Tris-HCl buffer (pH 7.5) containing 50 mM NaCl in the reference cell. Buffer-only experiments were also performed in all cells for subsequent background subtraction. Each sample underwent three successive heating scans in the temperature range of 10–35 °C at a heating rate of 1.0 °C.min^−1. Data analyses were performed using Microcal Origin® DSC software version 5.0 (GE HealthCare-Microcal®, Amherst, MA, USA), which was employed to subtract the blank and determine the transition temperature (Tm) and transition enthalpy (DtransH) from the gel phase to the liquid crystalline phase.

[3] = Isothermal titration calorimetry, peptide-membrane interaction; format: binding; settings: ITC, 20 mM POPC:POPG (3:1) LUVs titrated into sample at 50 µM peptide; 10 mM Tris-HCl, 100 mM NaCl, pH 8.5; 25 °C

Substance | relative order parameters of lipid chain (SCD sample / SCD pure vesicles) [1] | ∆transH of LUVs ([2]; 10 µM peptide) [kJ/mol] | ∆transH of LUVs ([2]; 25 µM peptide) | ∆transH of LUVs ([2]; 50 µM peptide) [kJ/mol] | ∆transH of LUVs ([2]; 100 µM peptide) [kJ/mol] | lowering of transition enthalpy (DtransH) ([2]; DMPC:DMPG (3:1) LUVs, versus pure LUVs) [kJ/mol] | ΔG^0 [3] [cal/mol] | ΔH^0 [3] [cal/mol] | ΔS^0 [3] [cal·mol^−1.K^−1]
Lun-1-AAAECterm-NP [NP-Lun-EC] | significant changes | 23.7 | 22.0/22.0 kJ·mol^−1 | 19.1 | 16.7 | 7.3 | -7802 | -650 ± 50 | 24
NP-NtermEAAA-Lun-1 [NP-Lun-EN] | minimal effects | 24.0 | 23.5 kJ/mol | 21.5 | 17.8 |  | -3478 | -200 ± 30 | 11
